# Laboratory results published in patent US20110195494A1 (Boehringer Ingelheim, published 2011).
# Sequences of proteins named here, by UniProt entry; tags and fusion partners are left off. A change or cut given only in a name is not applied to a line headed by its entry. Residues count along the entry.
# UniProt Q9JI71, residues 27-686: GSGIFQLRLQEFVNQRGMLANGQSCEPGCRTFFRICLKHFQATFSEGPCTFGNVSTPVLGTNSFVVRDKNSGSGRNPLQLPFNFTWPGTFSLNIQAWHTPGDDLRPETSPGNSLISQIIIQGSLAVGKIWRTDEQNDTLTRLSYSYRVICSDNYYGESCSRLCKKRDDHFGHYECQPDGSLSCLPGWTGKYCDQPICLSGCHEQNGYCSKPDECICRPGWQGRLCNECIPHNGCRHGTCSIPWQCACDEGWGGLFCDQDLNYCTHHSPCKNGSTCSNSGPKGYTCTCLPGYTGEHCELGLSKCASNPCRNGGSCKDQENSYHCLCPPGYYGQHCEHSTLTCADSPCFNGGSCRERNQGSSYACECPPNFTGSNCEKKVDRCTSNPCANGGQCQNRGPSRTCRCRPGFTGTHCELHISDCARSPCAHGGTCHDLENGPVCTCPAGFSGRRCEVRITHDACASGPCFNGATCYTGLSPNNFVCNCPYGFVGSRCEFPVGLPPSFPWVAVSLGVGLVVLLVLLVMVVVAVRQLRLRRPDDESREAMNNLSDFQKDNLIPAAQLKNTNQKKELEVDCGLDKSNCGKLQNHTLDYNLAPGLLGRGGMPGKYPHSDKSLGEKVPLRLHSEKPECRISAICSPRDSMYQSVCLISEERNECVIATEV
# UniProt P46531, residues 19-526: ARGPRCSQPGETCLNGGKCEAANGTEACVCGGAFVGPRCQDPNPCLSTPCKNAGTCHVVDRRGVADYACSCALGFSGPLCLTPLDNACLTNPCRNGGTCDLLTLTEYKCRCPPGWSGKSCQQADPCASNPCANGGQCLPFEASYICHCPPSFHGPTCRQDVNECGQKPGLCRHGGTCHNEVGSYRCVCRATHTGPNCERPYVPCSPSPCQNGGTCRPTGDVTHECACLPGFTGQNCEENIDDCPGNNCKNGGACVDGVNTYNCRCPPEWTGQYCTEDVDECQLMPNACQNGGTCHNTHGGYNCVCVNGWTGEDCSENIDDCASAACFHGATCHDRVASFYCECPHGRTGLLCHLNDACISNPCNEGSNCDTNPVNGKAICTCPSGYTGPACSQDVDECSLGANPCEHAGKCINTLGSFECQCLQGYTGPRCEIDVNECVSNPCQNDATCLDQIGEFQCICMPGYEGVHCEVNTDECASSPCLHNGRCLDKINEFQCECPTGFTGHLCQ
# These are yes or no findings as the source states them, for the method shown. Some binding calls cover weakened binding; strength is not graded here.
# Biological target: full length mouse DLL4 on overexpressing CHO or HEK293 cells (mouse) (UniProt Q9JI71)
# Test: FMAT competition: unlabelled rhNotch1-Fc against labelled hNotch1/Fc on mDLL4 cells
substance,measurement,value
recombinant human Notch1/Fc chimera (R&D Systems) (from UniProt P46531 19-526) (Fc fusion),binding,binds
